Measured values as given in patent US11040038B2, “Methods for treating diseases associated with abnormal ACVR1 expression and ACVR1 inhibitors for use in the same” (Sumitomo Dainippon Pharma Oncology, Inc., priority 2018, dated 2021).
Where “and” joins values, the source holds several entries; their conditions need not be identical. Equal entries are not always repeated. At least one read-out could not be matched to a standard name with certainty.

Test: Pharmacokinetics and relative bioavailability after a single oral dose (two liquid formulations, powder in capsule)
Assay type: in vivo
Details: male Beagle dogs, plasma, individual dog
Excerpt: The purpose of the study is to dose two suspension formulations of Compound 2 at two dose levels by gavage to Beagle dogs and to collect blood samples for the determination of plasma concentrations, derivation of pharmacokinetic parameters and to determine the relative bioavailability of the two suspension formulations. The pharmacokinetics of Compound 2 would be evaluated following oral administration in capsules and the relative bioavailability of this dosage form to the oral liquid formulations was determined.
This study involves the dosing of the test item by the oral route over three periods separated by a 7 days washout period as outlined in Table 43, Table 44, and Table 45. The third period of the study outlined in Table 45 is considered to be optional and will only be performed at the Sponsor's request. Prior to the day of dosing, food will be removed from the dogs at 4:00 pm and reintroduced 2 hrs after dosing.
For oral administration of the formulations, the test item was administered via a stomach tube followed by the administration of 10 mL of tap water. For oral administration of capsules, the capsule was placed on the back of the tongue to encourage swallowing followed by administration of 10 mL of tap water. The oral cavity was then be inspected to make sure the capsule was swallowed. The actual volume of dosing formulation administered will be calculated based on the animal's most recently scheduled body weight.
The pharmacokinetic parameters for Compound 2 in solution as Formulation #1 (Table 43) and Formulation #2 (Table 44) along with data for the dosing of Compound 2 powder in capsule (Table 45) are presented in Table 46.

Structure (SMILES): COc1cc(Nc2nccc(Nc3cccnc3-c3ccccn3)n2)ccc1N1CCN(C)CC1 [Compound 2, N^4-(2,2′-bipyridin-3-yl)-N^2-(3-methoxy-4-(4-methylpiperazin-1-yl)phenyl)pyrimidine-2,4-diamine]
- Vz/F (Formulation #1 (Table 43), 2 mg/kg oral, 2 mg/kg): 350 L/kg and 165 L/kg and 197 L/kg
- Vz/F (Formulation #1 (Table 43), 5 mg/kg oral, 5 mg/kg): 213 L/kg and 77 L/kg and 152 L/kg
- Vz/F (Formulation #2 (Table 44), 2 mg/kg oral, 2 mg/kg): 75 L/kg and 114 L/kg and 341 L/kg
- Vz/F (Formulation #2 (Table 44), 5 mg/kg oral, 5 mg/kg): 243 L/kg and 98 L/kg and 223 L/kg
- Vz/F (Powder in Capsule (Table 45), 2 mg/kg oral, 2 mg/kg): 118 L/kg and 52 L/kg
- Vz/F (Powder in Capsule (Table 45), 5 mg/kg oral, 5 mg/kg): 91 L/kg and 192 L/kg and 156 L/kg
